Experimental findings from the supplement of paper PMC12889115 are described below.

This is one part of the list. These are raw signals, not scaled to a control.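 Primary screen: polymyxin B was added at a level permeabilizing Salmonella outer membranes while sparing inner membranes. DMSO wells, both with and without polymyxin B, established maximum growth. Plate-to-plate variation meant each plate was ranked on its own, and the lowest-OD600 compounds were selected as hits.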

In this experiment the test system is Salmonella enterica serovar Typhimurium SL1344. Nature of the experiment: bacterial growth OD600 after 18 h with compound and polymyxin B; higher = more bacterial growth (less inhibition). To be noted: 50 µM, Mueller-Hinton broth.

On to `CC(=O)NCC(=O)NC1CCCc2c1cnn2-c1ccc(C(C)(C)C)cc1` (stereo unspecified), for which the “bacterial growth OD600” value (polymyxin B 0.75 µg/mL) turned out to be 0.006. As to `CN1CCN(C(=O)c2coc(COc3ccc(F)cc3Cl)n2)CC1`, under “polymyxin B 1 µg/mL”, the “bacterial growth OD600” value came out at 0.906.

Take `O=C(CSc1ccccn1)NC1CCCc2c1cnn2-c1ccc(F)cc1F` (stereo unspecified): for the setting “polymyxin B 1 µg/mL”, the “bacterial growth OD600” value was found to be 0.791. `COc1ccc(OC2CCN(C3CCCC3)CC2)c(C(=O)NCc2ccco2)c1`: the “bacterial growth OD600” value (polymyxin B 0.75 µg/mL) came to 0.882. For the compound `COCCN1CCCC(CNc2nc3nonc3nc2NC2CCCC2)C1` (stereo unspecified), the “bacterial growth OD600” value (polymyxin B 1 µg/mL) amounted to 0.846. As to `Cc1ncc2c(c1CNC(=O)c1ccsc1)CCN(C(=O)/C=C/c1cccc(F)c1F)C2`, the “bacterial growth OD600” value (polymyxin B 0.75 µg/mL) came out at 0.762. In the case of `CC(C)(C)C(=O)Nc1ccnn1C1CCN(C(=O)c2noc3c2CCCC3)CC1`, the “bacterial growth OD600” value (polymyxin B 1 µg/mL) came to 0.912.

On to `COc1ccccc1C(=O)N[C@@H]1c2ccccc2C2(CCN(Cc3cc(F)ccc3F)CC2)[C@H]1OC`, for which, for the setting “polymyxin B 0.75 µg/mL”, the “bacterial growth OD600” value is 0.961.

With `CCC(NC(=O)c1cc(NS(=O)(=O)N(C)C)cc2nc(CC(C)C)n(C)c12)c1cccs1` (stereo unspecified), the “bacterial growth OD600” value (polymyxin B 0.75 µg/mL) amounted to 0.949. `COc1ccc(OC)c(-c2cc(Cl)c3c(c2)CC(CNC(=O)C2CCCO2)O3)c1` (stereo unspecified): for the setting “polymyxin B 0.75 µg/mL”, the “bacterial growth OD600” value was found to be 0.039. For `CCc1noc(C)c1C(=O)N1CCC(CCC(=O)Nc2ccc(F)c(Cl)c2)CC1`, under “polymyxin B 1 µg/mL”, the “bacterial growth OD600” value amounted to 1.12. Regarding `COc1ccc(OC)c(C(=O)N(Cc2ccc(OCc3ccccn3)cc2)[C@H]2CCCCNC2=O)c1`, the “bacterial growth OD600” value (polymyxin B 0.75 µg/mL) came to 0.77. On to `CCCC(=O)N1CCCC(C(=O)Nc2cccc(-c3ccc(F)cc3)c2)C1` (stereo unspecified), for which the “bacterial growth OD600” value (polymyxin B 1 µg/mL) was 0.569. With `COCCN(Cc1nc(-c2cc3c(cc2Cl)OCO3)oc1C)C(C)C`, the “bacterial growth OD600” value (polymyxin B 1 µg/mL) is 1.01. Consider `CC#CC(=O)N1CCCC(N2CCN(Cc3ccc4c(c3)OCO4)CC2)C1` (stereo unspecified), for which, where the note is “polymyxin B 1 µg/mL”, the “bacterial growth OD600” value worked out at 0.866.

Regarding `Cc1ccc(CNc2nc(CN3CCN(C=O)CC3)nc3ccccc23)cc1`, the “bacterial growth OD600” value (polymyxin B 0.75 µg/mL) was found to be 0.81. Still for that read-out and setting: with `CCCCc1nc2cc(C(=O)NCCCOC(C)C)ccc2o1` the figure was 0.836; with `Cc1ccc(C(=O)N2CCC(C3(CCC(C)C)NC(=O)N(Cc4ccccn4)C3=O)CC2)c(C)c1` (stereo unspecified), 0.91; with `O=C(Cc1ccc(F)c(F)c1)N1CCC(C2(c3cccnc3)NC(=O)N(CC3CCCO3)C2=O)CC1` (stereo unspecified), 0.817. For `COc1ccc2cc(C(=O)C3CCCN(Cc4cc(C(C)C)[nH]n4)C3)ccc2c1` (stereo unspecified), the “bacterial growth OD600” value (polymyxin B 1 µg/mL) worked out at 0.608.

On to `c1cc(CN2CCc3[nH]nc(-c4ccc5c(c4)OCO5)c3C2)ccn1`, for which the “bacterial growth OD600” value (polymyxin B 0.75 µg/mL) is 0.944. Consider `O=C(c1ccccc1OC1CCN(Cc2ccccc2OCCO)CC1)N1CCCCC1`, for which the “bacterial growth OD600” value (polymyxin B 0.75 µg/mL) is 0.799. Regarding `C=CCO[C@H]1[C@H](NC(=O)COC)c2ccccc2C12CCN(C(=O)/C=C/c1cc(F)ccc1F)CC2`, the “bacterial growth OD600” value (polymyxin B 0.75 µg/mL) was -0.004. On the same count and under the same terms, with `O=C(Nc1ccc(N2CCC(NC(c3ccccn3)C(F)(F)F)CC2)cc1)c1cnccn1` (stereo unspecified) the figure was 0.835.

On to `COc1ccccc1CCNC(=O)Cc1ccc(N2CCC(NCCc3cccs3)CC2)cc1`, for which, where the note is “polymyxin B 0.75 µg/mL”, the “bacterial growth OD600” value was 0.757.

As for `COc1ccc(C(=O)Nc2ccnn2C2CCN(C(=O)c3cc(C)nc(C)n3)CC2)cc1`, the “bacterial growth OD600” value (polymyxin B 1 µg/mL) came to 0.913.

Take `Cc1oc(-c2ccc(F)cc2F)nc1CN(C)Cc1ccccc1C(F)(F)F`: the “bacterial growth OD600” value (polymyxin B 1 µg/mL) was determined as 0.856. Same read-out and setting: as for `COc1ccc(OC)c(Cc2nnc(CCC(=O)NC3CCCCCCC3)o2)c1`, the figure is 0.537; as for `CCOC(=O)C1(CCc2ccccc2)CCN(C(=O)CSc2ncccn2)CC1`, 0.758. Regarding `CCN(C)c1ccc(-c2nc(Cc3ccc(OC)cc3)no2)cn1`, under “polymyxin B 1 µg/mL”, the “bacterial growth OD600” value turned out to be 0.862. Turning to `CN(CCc1ccccc1)C1CCCN(C(=O)c2cccc(N3CCOCC3)c2)C1` (stereo unspecified), the “bacterial growth OD600” value (polymyxin B 1 µg/mL) was found to be 1.21.
